Results are given in words; binding and its absence hold for the method and conditions named. In cells and extracts the contact can be indirect. Some entries that bind do so weakly or less than the wild type.
Target: AXIN1 (human (endogenous in HCT116)) (UniProt O15169)
Test: co-IP

The chains behind the UniProt entries cited, without tags or fusion partners.
UniProt O15169: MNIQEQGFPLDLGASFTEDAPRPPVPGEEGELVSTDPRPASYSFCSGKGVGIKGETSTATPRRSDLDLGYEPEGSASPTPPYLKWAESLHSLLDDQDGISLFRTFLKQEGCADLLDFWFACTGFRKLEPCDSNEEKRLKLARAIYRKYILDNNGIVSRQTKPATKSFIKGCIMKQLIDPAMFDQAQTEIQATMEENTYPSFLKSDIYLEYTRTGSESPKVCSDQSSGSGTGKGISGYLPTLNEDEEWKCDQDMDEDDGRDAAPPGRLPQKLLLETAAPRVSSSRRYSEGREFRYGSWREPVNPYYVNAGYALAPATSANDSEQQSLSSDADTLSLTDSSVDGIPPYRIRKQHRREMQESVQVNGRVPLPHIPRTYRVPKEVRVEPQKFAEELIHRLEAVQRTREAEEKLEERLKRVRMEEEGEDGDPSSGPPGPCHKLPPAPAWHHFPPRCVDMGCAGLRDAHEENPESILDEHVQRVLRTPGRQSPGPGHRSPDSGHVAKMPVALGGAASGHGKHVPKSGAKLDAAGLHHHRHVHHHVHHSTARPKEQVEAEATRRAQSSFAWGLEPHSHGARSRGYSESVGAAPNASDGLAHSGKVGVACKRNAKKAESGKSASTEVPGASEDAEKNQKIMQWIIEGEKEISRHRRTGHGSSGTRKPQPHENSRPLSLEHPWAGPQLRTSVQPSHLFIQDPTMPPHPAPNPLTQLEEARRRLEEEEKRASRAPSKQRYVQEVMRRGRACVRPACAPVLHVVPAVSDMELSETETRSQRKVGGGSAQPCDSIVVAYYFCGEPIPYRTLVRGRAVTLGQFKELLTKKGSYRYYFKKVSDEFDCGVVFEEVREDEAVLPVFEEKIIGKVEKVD
UniProt P35222: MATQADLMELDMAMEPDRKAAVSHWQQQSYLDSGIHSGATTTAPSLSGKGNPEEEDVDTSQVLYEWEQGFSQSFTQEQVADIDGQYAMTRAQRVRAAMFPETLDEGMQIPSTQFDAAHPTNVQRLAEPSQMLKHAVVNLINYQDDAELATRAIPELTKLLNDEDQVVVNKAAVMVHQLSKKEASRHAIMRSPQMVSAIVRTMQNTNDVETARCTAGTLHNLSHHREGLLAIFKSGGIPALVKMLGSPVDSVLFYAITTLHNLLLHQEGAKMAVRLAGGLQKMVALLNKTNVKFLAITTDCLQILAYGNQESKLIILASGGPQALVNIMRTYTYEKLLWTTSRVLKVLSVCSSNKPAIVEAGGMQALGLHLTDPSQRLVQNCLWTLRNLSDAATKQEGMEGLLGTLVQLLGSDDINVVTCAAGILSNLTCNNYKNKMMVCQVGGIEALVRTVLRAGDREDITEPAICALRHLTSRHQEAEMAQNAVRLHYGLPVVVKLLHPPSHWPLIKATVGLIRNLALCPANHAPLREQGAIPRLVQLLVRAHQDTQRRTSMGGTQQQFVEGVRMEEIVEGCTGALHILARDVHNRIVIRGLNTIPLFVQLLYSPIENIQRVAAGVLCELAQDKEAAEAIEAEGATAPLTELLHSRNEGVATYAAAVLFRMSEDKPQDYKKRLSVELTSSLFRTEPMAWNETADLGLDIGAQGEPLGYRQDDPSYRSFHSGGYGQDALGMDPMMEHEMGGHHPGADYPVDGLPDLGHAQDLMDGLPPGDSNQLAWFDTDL

binding: binds
Substance: beta-catenin (from UniProt P35222 1-781)
